For this assay, the target named is PB2-Glc2 of influenza A virus A/WSN/33 (H1N1WSN) (influenza A virus A/WSN/33 (H1N1)) (UniProt P03427). As to the kind of experiment: split reporter.

Protein sequences, listed by entry. Tags and fused reporters are not part of them.
UniProt P03427: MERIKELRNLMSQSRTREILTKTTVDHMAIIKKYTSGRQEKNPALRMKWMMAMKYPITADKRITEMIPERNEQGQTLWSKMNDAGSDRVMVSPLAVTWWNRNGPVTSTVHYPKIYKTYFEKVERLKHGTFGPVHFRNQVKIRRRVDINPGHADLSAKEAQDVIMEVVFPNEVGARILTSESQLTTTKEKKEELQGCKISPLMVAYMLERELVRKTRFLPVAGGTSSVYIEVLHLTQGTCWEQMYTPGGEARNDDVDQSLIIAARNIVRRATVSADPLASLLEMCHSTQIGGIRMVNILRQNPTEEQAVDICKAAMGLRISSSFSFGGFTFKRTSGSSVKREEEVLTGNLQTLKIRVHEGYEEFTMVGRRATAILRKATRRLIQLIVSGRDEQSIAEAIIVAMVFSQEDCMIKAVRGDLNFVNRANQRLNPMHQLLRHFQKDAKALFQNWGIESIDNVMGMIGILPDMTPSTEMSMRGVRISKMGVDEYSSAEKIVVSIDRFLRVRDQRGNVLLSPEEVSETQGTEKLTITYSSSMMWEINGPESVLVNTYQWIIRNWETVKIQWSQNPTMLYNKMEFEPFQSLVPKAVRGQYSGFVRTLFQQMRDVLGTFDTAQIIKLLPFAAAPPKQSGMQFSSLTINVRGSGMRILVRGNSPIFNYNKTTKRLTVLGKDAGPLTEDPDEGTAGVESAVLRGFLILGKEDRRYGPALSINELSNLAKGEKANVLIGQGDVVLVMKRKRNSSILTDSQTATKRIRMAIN

Results are given in words; binding and its absence hold for the method and conditions named. In cells and extracts the contact can be indirect. Some results given as binding are weak or reduced against the parent protein; the word gives no strength.

Consider one molecule from publication PMC5700371.

B1: NUP50 (protein, UniProt Q9UKX7 1-468)
chain: MAKRNAEKELTDRNWDQEDEAEEVGTFSMASEEVLKNRAIKKAKRRNVGFESDTGGAFKGFKGLVVPSGGGRFSGFGSGAGGKPLEGLSNGNNITSAPPFASAKAAADPKVAFGSLAANGPTTLVDKVSNPKTNGDSQQPSSSGLASSKACVGNAYHKQLAALNCSVRDWIVKHVNTNPLCDLTPIFKDYEKYLANIEQQHGNSGRNSESESNKVAAETQSPSLFGSTKLQQESTFLFHGNKTEDTPDKKMEVASEKKTDPSSLGATSASFNFGKKVDSSVLGSLSSVPLTGFSFSPGNSSLFGKDTTQSKPVSSPFPTKPLEGQAEGDSGECKGGDEEENDEPPKVVVTEVKEEDAFYSKKCKLFYKKDNEFKEKGIGTLHLKPTANQKTQLLVRADTNLGNILLNVLIPPNMPCTRTGKNNVLIVCVPNPPIDEKNATMPVTMLIRVKTSEDADELHKILLEKKDA
Take B1: the binding result is “binds”.
